In article PMC8743547:
Construct, isoform or probe ends are uncertain for at least one entry.

Protein sequences, listed by entry. Tags and fused reporters are not part of them. Lines headed by an entry give the natural chain unless they say otherwise; changes in a name come on top.
UniProt P0AFB8: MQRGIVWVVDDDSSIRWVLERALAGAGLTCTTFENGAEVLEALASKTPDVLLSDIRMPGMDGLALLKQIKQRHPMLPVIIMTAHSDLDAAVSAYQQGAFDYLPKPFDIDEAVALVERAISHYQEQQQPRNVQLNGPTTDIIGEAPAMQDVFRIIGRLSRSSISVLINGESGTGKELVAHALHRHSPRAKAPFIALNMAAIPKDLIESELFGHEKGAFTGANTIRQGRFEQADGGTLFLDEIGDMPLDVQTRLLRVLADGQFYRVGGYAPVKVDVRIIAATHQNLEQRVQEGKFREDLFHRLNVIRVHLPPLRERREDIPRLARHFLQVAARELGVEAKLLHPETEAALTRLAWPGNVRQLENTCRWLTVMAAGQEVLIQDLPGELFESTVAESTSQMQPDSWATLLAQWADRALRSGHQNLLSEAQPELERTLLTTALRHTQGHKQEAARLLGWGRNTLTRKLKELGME

Molecular target: NtrC (Escherichia coli K-12 W3350 type-A) (UniProt P0AFB8)
Test: EMSA
Conditions: 15 uM NtrC, acetylphosphate, EMSA: gel-shift buffer (composition not stated) with 25 mM acetylphosphate and ATP, 37 C, 30 min, 3.5% PAGE, GelRed stain, recombinant protein, protein details: His-tag, probe letters rebuilt from the primers and the genome

Sequence | binding result (smear) | binding result
ACCAGAACGAATACTATTATGGCGTATCGCGCAAAGAGTCCGCTCGCAGCGGTCTGCGTGGCTATAACCCGAACGACAGCTGGAGCCCTTACCTGGAGCTGAGCGCCAGCTACAACTTCCTCGGCGACTGGAGTGTTTACGGTACCGCACGCTACACCCGTCTGTCTGATGAAGTTACTGACAGCCCGATGGTGGATAAATCCTGGACTGGCCTGATTTCTACCGGGATCACCTACAAATTCTGATAATGCATCTTTCCAGGGCATTTTGTGCATAAAAACAGGGCGTCACGCCCTGTTTTGCATTACGGTGGTGCAATACCTGGGAGGAAACAATGCAACAAAAAATGATTCAATTTAGTGGCGATGTCTCACTGCCAGCCGTAGGGCAGGGAACATGGTATATGG (double strand) [yeaE probe] | binds | 
CCTATCAGTTCCTGAATTACCTGCTGCGCCCGGATGTAGTAGCGCATATTTCCGACCATGTGTTCTATGCCAACGCCAATAAAGCAGCCACGCCGCTGGTGAGTGCGGAAGTCCGTGAGAACCCAGGTATTTATCCGCCTGCGGATGTTCGTGCGAAGCTGTTCACTCTGAAAGTGCAGGATCCGAAAATCGACCGTGTGCGCACCCGCGCGTGGACCAAAGTGAAGAGCGGAAAATAATCCGCAGTCGTAGATGCCGGAGGGGCGCACCACACCCGCCGGCAATTCGCACCATTATGGTGCGCTTGCACACATTCAATGCCGGAGAGCAGCCGTGAATGACGCTATCCCTCGCCCGCAGGCGAAAACCCGTAAGGCGCTGACGCCGCTATTAGAAATCCGCAACCTGACCAAATCCTAC (double strand) [potG probe] |  | binds
CGCGGATCCCGTTGATTTCCTCTGTATGTGCACCCAAGGTGCCAGATAAACGTTGTGGATATTTTACGCTTCCGGAAAGTGCTGCTCCAGTTGTTAATTCTGCAAAATCGGATAAGTGACCGAAATCACACTTAAAAATGATCTAAAACAAAATTCACCCGAATCCATGAGTGCGCCACCTCCAAATTTTGCCAGCTGGATCGCGTTTCTTAGATCATATTTGAAAAAAGATATAAACATACTTGCAACATTCCAGCTGGTCCGACCTATACTCTCGCCACTGGTCTGATTTCTAAGATGTACCTCAGACCCTACACTTCGCGCTCCTGTTACAGCACGTAACATAGTTTGTATAAAAATAAATCATTGAGGTTATGGTCATGAGCCAGAAAACCCTGTTTACAAAGTCTGCTCTCGCAGTCGCAGTGGCACTTATCTCCACCCAGGCCTGGTCGGCAGGCTTTCAGTTAAACGAATTTTCTTGAATTCCGG (double strand) [yfcZ/fadL probe] | binds | 
CTCATCTTCTGACTTTAATGGCGCTCAGGGTGCAGCAATATTGGCGCATCAACGTTTTTTGCCACAGTTCTGTGCTAAAGCCCCATGAGTAAAACGTTGGCACAGTAGCGCAATGTCCCGCTGTGCCAACGACAGGTACAATATATACGTAAACACATAAACGACGGTTATTATTTCTGCAATGATAGTTTTACTGTAATTTTCCCCTTCCAGCACAAATGCCTATCAAAATGGCGCGTTCCGCCTCACACTTCCACTTCTATTAAAGTCGCAATTTCCCAATTGGCGATAACGCCAGCTTTTAAAATGACGTGCATTTTGCATGGATTACATTATCAATTAATATAAATGATAAATGGAGATTTATATGAATAACTCTCG (double strand) [yjcS probe] | binds | 
GCGCAGGCGTATTTCAATTCGATCTCCAGATCAGGGAAGATTACGGCTAAATCAACCAGTTCGGTGGTATCCGACATAAACGGTTCCTGTATAAGACAAAAATTGCTGCGCTTTCCGCTTATGCAGATCTCATGCCATGCCGGGATAAGCGCCAGAATGCTGGCTTAAAGTTATATTTTTTAACTTTTGATCAACATTTGTGCAGCGTAGTGCAGTTTTGGTGCAAGAGGGGAAGTTAAGGAAGGAATCTCCCGGAATCGTAGCTGAAATCACAGTATTTAAGTGACAGTGTCACGTTAAATGAAAACCCGCGAGTGCGGGCGAGAGGAATTTGTCAGATTTTCAGCGGTAACACGCTGCTCATCCAGCCTGGAATTTCTTCGGCGGGTAGGGGGCGGGAAAAGAAATA (double strand) [ddpX probe] |  | binds
